In patent US20110195974A1, “METHODS OF TREATING INFLAMMATORY CONDITIONS WITH ADRENERGIC ANTAGONISTS” (priority 2007, published 2011):
Some results were stated once for a whole list of compounds, not compound by compound.

Tested on: TNFα
Assay: Whole blood assay: inhibition of LPS-induced TNFα release (TNF ELISA)
Assay type: cell-based, human
Conditions: LPS 10 μg/ml, 25% whole blood diluted in plasmalyte
Method: […]. […] The experiment was conducted at least 2 times in duplicates and the fitted representation above consists of the average of those experiments. The IC50 values were calculated using logistic analysis on Origin Software.
FIG. 4 illustrates a graph showing the inhibition of release of TNF α by terbutaline and salbutamol. This assay evaluated the inhibition of TNF production by salbutamol and terbutaline using the whole blood assay. This method utilized an LPS induction at 10 μg/ml in 25% whole blood diluted in plasmalyte. […] Higher doses were not evaluated because the equivalent mg/kg doses would be too high, therefore, limiting their practical use under therapeutic conditions. IC50 values were not calculated. […] The data and the fit were calculated using Origin Software. […]
This assay measured prazosin alone, and the combination of: prasozin/butoxamine, prasozin/butoxamine/terbutaline, prasozin/butoxamine/salbutamol, and prazosin/salbutamol. […]
We collected whole human blood in a polypropylene tube. […] Following the incubation, the blood was centrifuged and the plasma was evaluated for TNF quantification using the ELISA assay (BD Biosciences, Los Angeles, Calif.). […]
Blood was drawn from thirteen independent donors under an IRB approved protocol. […] The blood samples were spun and plasma evaluated for TNF production using TNF ELISA from BD Biosciences. […]

Row | SMILES | inhibition of TNF production at the upper range of the dose curve
1 | CC(C)(C)NCC(O)c1ccc(O)c(CO)c1 (centres unmarked) [Salbutamol, salbutamol] | ≤ 50%
2 | CC(C)(C)NCC(O)c1cc(O)cc(O)c1 (centres unmarked) [Terbutaline, terbutaline] | ≤ 50%
